Our source for the log2 fold change values is the supplement of paper PMC12819154, “High-throughput peptide-centric local stability assay extends protein–ligand identification to membrane proteins, tissues and bacteria” (Nature Structural & Molecular Biology, 2025).

Amino acid sequences for entries named in this document (tags omitted). A change or cut given only in a name is not applied to a line headed by its entry.
UniProt Q99LF4: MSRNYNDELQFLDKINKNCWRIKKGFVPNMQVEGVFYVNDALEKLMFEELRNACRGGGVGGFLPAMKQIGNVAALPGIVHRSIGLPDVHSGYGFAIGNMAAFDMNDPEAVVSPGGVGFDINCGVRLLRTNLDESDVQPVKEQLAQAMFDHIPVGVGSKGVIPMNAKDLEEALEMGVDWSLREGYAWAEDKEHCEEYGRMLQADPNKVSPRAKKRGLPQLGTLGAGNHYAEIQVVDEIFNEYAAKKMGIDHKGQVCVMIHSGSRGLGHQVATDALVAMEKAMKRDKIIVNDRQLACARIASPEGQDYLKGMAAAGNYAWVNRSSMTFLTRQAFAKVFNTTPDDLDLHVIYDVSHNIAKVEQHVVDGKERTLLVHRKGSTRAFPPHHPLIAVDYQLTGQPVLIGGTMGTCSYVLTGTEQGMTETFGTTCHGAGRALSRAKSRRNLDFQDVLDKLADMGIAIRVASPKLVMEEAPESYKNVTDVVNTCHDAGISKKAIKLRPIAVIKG
UniProt Q921R4: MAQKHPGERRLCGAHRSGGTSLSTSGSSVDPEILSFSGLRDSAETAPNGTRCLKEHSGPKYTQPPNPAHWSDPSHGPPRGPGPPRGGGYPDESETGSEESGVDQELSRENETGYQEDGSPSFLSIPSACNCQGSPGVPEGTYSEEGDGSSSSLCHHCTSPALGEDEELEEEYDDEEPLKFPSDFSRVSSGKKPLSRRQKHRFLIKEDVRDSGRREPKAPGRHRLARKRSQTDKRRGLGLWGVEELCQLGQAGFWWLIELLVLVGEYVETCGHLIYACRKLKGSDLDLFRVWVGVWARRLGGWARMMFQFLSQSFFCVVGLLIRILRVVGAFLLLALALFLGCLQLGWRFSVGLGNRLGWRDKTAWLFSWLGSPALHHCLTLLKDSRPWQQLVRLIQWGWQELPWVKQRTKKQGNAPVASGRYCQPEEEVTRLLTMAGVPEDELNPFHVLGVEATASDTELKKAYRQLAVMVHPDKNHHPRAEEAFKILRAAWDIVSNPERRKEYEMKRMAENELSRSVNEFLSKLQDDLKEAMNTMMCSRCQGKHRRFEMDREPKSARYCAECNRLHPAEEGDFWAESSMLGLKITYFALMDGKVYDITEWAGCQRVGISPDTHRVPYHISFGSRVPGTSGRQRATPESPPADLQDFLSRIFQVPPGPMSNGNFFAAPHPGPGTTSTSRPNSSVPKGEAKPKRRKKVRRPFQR
UniProt Q91ZZ3, whole entry: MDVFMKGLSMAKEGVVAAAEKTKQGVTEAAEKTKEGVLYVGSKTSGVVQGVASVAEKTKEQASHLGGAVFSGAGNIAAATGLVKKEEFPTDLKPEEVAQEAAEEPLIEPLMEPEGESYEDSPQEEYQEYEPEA
UniProt Q99JX7: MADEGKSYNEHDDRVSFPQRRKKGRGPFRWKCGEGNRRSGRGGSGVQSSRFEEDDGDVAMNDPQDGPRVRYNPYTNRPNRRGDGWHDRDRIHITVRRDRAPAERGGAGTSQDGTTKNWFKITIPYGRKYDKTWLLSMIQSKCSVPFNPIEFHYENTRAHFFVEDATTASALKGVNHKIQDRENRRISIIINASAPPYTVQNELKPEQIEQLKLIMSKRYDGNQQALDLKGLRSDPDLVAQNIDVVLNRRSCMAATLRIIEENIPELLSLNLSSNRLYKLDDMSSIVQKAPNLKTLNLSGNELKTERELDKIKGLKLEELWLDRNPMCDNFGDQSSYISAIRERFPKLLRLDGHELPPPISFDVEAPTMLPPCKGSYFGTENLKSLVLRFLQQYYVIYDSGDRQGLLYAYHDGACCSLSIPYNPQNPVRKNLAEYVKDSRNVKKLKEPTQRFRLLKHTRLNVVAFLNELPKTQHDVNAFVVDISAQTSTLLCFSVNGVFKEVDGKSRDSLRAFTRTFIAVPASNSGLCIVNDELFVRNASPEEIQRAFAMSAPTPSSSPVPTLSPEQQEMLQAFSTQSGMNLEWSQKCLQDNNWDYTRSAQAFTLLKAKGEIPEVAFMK
UniProt Q99JG7: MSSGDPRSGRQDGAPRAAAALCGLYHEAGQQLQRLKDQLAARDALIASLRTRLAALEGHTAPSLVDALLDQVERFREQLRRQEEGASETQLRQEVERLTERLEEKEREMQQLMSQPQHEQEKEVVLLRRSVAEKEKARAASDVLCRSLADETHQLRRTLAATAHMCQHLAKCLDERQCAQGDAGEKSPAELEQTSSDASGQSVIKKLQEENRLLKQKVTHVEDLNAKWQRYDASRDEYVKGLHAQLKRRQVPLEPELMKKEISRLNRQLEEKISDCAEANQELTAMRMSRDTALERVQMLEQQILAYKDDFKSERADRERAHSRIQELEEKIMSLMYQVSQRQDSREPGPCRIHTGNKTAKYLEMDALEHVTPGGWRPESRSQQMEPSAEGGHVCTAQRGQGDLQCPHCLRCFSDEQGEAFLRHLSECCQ
UniProt Q921W0: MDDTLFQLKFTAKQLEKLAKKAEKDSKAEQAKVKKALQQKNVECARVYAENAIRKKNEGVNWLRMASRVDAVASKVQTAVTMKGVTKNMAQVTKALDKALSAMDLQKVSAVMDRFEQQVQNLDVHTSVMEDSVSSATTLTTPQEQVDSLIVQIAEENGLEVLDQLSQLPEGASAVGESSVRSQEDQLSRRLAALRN
UniProt Q99JY0: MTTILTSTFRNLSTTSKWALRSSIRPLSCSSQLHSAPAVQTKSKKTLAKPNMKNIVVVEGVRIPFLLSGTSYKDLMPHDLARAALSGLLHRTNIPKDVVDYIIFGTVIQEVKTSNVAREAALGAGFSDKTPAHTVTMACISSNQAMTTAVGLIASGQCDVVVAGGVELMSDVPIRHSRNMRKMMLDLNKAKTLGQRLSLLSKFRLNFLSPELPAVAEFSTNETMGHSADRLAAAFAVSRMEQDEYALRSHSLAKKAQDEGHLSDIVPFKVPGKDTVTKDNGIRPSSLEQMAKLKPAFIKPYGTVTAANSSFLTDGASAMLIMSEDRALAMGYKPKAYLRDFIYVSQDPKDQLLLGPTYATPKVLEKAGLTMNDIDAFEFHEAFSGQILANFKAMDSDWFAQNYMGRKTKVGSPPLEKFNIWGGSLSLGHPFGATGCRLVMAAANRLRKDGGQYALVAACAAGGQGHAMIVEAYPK
UniProt Q923B1: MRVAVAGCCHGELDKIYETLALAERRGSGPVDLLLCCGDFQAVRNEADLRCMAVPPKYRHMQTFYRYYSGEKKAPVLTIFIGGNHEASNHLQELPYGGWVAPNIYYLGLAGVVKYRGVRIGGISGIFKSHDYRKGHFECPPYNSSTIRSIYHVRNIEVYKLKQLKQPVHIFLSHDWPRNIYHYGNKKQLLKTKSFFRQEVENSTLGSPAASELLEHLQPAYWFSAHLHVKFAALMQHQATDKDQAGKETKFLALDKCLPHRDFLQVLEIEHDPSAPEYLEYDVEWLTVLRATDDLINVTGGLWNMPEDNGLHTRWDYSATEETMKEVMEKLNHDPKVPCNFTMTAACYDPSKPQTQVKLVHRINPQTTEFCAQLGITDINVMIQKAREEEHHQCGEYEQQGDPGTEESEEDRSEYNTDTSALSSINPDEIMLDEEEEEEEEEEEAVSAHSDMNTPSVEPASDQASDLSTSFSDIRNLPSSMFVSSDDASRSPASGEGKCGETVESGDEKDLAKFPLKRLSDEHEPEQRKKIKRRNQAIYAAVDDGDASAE
UniProt Q99J10: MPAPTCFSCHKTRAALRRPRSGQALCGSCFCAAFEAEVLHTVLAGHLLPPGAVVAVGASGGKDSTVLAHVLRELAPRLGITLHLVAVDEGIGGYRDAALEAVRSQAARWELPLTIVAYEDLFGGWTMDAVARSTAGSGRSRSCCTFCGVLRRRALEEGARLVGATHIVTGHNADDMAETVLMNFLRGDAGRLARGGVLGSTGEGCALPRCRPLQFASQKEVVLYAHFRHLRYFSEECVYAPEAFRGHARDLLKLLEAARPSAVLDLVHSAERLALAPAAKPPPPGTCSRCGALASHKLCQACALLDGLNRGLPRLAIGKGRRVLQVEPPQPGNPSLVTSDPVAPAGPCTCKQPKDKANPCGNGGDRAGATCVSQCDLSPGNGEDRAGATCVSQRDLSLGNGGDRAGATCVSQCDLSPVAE
UniProt Q921G6: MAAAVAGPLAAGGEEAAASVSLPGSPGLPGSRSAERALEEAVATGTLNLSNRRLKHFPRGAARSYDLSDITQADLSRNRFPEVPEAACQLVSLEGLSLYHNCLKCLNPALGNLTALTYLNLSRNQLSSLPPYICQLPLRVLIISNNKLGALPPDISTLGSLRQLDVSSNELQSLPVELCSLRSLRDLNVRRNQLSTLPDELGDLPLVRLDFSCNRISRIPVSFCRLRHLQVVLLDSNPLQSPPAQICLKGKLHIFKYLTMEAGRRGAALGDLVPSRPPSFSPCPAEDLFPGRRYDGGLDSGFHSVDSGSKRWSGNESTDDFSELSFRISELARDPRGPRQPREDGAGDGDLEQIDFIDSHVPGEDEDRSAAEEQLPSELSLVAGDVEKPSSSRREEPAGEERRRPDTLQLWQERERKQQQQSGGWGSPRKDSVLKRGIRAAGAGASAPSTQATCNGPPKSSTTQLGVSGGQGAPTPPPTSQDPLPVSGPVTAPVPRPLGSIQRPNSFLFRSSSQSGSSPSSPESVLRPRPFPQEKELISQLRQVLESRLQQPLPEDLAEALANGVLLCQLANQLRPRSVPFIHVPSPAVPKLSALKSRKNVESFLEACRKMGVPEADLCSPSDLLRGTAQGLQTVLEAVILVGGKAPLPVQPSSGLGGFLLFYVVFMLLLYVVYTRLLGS
UniProt Q99KK9: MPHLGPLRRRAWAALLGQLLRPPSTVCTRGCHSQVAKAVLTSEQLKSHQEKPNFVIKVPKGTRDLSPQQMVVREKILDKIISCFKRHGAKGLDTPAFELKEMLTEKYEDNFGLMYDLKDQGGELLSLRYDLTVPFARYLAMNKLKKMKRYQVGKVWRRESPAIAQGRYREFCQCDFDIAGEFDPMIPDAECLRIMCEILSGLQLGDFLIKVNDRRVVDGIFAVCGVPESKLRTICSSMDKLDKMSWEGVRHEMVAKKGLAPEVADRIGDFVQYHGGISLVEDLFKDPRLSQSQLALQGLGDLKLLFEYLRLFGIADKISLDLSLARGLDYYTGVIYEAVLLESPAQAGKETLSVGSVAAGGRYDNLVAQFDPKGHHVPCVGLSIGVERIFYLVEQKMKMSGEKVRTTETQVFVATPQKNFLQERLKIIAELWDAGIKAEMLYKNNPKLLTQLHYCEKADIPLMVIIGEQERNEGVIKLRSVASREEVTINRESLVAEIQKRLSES
UniProt Q99K95: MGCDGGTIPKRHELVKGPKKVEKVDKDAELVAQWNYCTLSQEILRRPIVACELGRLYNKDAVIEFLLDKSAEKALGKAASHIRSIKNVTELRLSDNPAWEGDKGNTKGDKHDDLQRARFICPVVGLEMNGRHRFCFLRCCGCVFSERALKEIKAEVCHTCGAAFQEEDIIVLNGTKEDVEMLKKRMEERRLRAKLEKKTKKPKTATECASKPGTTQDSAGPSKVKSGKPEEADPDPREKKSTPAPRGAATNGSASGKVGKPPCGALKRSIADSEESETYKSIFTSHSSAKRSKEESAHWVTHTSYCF
UniProt Q99K67: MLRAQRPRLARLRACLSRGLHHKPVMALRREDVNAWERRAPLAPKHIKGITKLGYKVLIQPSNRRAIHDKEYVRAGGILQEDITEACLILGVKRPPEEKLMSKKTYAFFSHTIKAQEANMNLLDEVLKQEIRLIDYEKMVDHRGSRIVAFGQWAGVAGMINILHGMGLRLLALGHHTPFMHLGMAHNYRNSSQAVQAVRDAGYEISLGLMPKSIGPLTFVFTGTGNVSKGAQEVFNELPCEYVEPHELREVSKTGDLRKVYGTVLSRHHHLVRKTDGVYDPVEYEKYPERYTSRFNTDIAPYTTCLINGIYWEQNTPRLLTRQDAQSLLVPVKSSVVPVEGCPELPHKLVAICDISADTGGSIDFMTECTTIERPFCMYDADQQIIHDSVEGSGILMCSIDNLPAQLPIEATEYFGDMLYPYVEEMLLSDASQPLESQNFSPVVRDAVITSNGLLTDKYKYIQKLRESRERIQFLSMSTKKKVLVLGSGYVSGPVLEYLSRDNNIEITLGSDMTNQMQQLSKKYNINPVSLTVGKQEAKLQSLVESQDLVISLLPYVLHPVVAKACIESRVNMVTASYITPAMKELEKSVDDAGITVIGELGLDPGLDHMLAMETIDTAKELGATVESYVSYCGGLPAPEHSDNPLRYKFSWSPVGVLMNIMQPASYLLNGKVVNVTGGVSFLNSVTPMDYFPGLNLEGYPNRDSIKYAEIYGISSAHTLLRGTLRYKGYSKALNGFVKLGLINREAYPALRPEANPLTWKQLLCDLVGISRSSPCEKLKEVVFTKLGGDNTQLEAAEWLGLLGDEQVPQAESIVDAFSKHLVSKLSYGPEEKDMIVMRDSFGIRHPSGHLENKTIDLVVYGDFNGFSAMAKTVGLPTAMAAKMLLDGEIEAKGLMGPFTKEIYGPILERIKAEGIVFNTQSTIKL

Some of the results follow. Most values lie at the level of the controls, where differences are scatter.

Compound in the test: CN[C@@H]1C[C@H]2O[C@@](C)([C@@H]1OC)n1c3ccccc3c3c4c(c5c6ccccc6n2c5c31)C(=O)NC4 [staurosporine]
Put plainly: log2 fold change of tryptic peptide abundance, ligand vs vehicle (limited proteolysis) (log2 ratio); higher = more trypsin-susceptible (destabilized). Conditions: ligand concentration: 20 uM; sample: mouse liver crude lysate; replicate design: treated separately.
Consider “UniProt Q99LF4 (peptide sequence: GLGHQVATDALVAMEK, peptide start residue: 264)”, for which the log2 fold change was -0.132.

For the target “UniProt Q99L04 (peptide sequence: GQVCVVTGASR, peptide start residue: 7)”, the log2 fold change is -0.709.

For the target “UniProt Q923D2 (peptide sequence: VISKHDLGHFMLR, peptide start residue: 175)”, the log2 fold change came out at 0.309.

Turning to “UniProt Q99LB6 (peptide sequence: VLITGATGLLGR, peptide start residue: 31)”, the log2 fold change was -0.283.

On to “UniProt Q921R4 (peptide sequence: DSAETAPNGTR, peptide start residue: 41)”, for which the log2 fold change is -0.0168.

For the target “UniProt Q91ZZ3 (peptide sequence: TSGVVQGVASVAEK, peptide start residue: 44)”, the log2 fold change is 0.335.

On to “UniProt Q920R0 (peptide sequence: VAATYEAGALSLK, peptide start residue: 401)”, for which the log2 fold change is -0.191.

With “UniProt Q924T7 (peptide sequence: LREEVPLGQSIAR, peptide start residue: 1051)”, the log2 fold change is -0.473.

Consider “UniProt Q924A2 (peptide sequence: AEASSNDIAGAR, peptide start residue: 1601)”, for which the log2 fold change stood at 0.239.

For the target “UniProt Q99JB8 (peptide sequence: AAEDGFRK, peptide start residue: 131)”, the log2 fold change came to 0.336.

Take “UniProt Q99JX7 (peptide sequence: SCMAATLR, peptide start residue: 250)”: the log2 fold change was -0.464.

Take “UniProt Q99LH2 (peptide sequence: DIHTTTGK, peptide start residue: 252)”: the log2 fold change is 1.03.

Regarding “UniProt Q99JG7 (peptide sequence: VQMLEQQILAYKDDFK, peptide start residue: 297)”, the log2 fold change stood at 0.631.

Turning to “UniProt Q921W0 (peptide sequence: MDDTLFQLK, peptide start residue: 1)”, the log2 fold change was -0.368.

Regarding “UniProt Q99JY0 (peptide sequence: KMMLDLNK, peptide start residue: 182)”, the log2 fold change was 0.112.

For the target “UniProt Q99LG4 (peptide sequence: VSLQNLSMVLR, peptide start residue: 137)”, the log2 fold change turned out to be 0.175.

As for “UniProt Q923B1 (peptide sequence: RRNQAIYAAVDDGDASAE, peptide start residue: 533)”, the log2 fold change was -0.496.

In the case of “UniProt Q921H9 (peptide sequence: YGHGDSCYK, peptide start residue: 65)”, the log2 fold change is -0.276.

In the case of “UniProt Q920Q4 (peptide sequence: ILAHWACYK, peptide start residue: 484)”, the log2 fold change was 0.647.

For “UniProt Q921K9 (peptide sequence: KWVTVGDTSLR, peptide start residue: 34)”, the log2 fold change was -0.25.

For “UniProt Q99K48 (peptide sequence: MEELHNQEVQK, peptide start residue: 328)”, the log2 fold change was determined as 0.129.

Take “UniProt Q925J9 (peptide sequence: MEMCSGSNK, peptide start residue: 678)”: the log2 fold change is -0.692.

On to “UniProt Q99J10 (peptide sequence: CRPLQFASQK, peptide start residue: 210)”, for which the log2 fold change was 0.499.

Consider “UniProt Q921G6 (peptide sequence: YDGGLDSGFHSVDSGSKR, peptide start residue: 294)”, for which the log2 fold change is -0.685.

As to “UniProt Q99KK9 (peptide sequence: KGLAPEVADR, peptide start residue: 257)”, the log2 fold change is -0.0329.

Take “UniProt Q99K95 (peptide sequence: CCGCVFSER, peptide start residue: 139)”: the log2 fold change came to 0.215.

As to “UniProt Q99K67 (peptide sequence: SSVVPVEGCPELPHK, peptide start residue: 334)”, the log2 fold change was -0.211.

As to “UniProt Q925F2 (peptide sequence: NGTLSSVTSAR, peptide start residue: 310)”, the log2 fold change was -0.147.

As to “UniProt Q99KU6 (peptide sequence: LVSLPITKK, peptide start residue: 106)”, the log2 fold change is 0.36.

Turning to “UniProt Q99L88 (peptide sequence: GSGTGHPVPGVAQAPDSPAGVR, peptide start residue: 70)”, the log2 fold change is -0.207.

Consider “UniProt Q921L5 (peptide sequence: TAMVELINK, peptide start residue: 58)”, for which the log2 fold change is -0.364.

In the case of “UniProt Q922G2 (peptide sequence: LSGGSHYNSQK, peptide start residue: 163)”, the log2 fold change came out at 0.259.

Regarding “UniProt Q99LI5 (peptide sequence: TDEHGNQEPK, peptide start residue: 202)”, the log2 fold change is -0.599.

For the target “UniProt Q922Y1 (peptide sequence: MLELVAQK, peptide start residue: 98)”, the log2 fold change is -0.093.

With “UniProt Q921F4 (peptide sequence: LCFSTSSHL, peptide start residue: 583)”, the log2 fold change came out at 0.0983.

With “UniProt Q922E6 (peptide sequence: INFHHTSSEDVFTK, peptide start residue: 120)”, the log2 fold change was -0.218.

In the case of “UniProt Q920D3 (peptide sequence: HWQQVLEDINVQHK, peptide start residue: 138)”, the log2 fold change was -0.51.

With “UniProt Q924K8 (peptide sequence: NYSHHNGLDGPER, peptide start residue: 575)”, the log2 fold change was 0.254.

“UniProt Q99L45 (peptide sequence: TSFVNFTDICKLLHRQPK, peptide start residue: 215)”: the log2 fold change is -0.503.

Consider “UniProt Q99KK1 (peptide sequence: KRPQVYF, peptide start residue: 248)”, for which the log2 fold change worked out at 0.11.
